Laboratory results as given in PubChem BioAssay AID1259415 (National Center for Advancing Translational Sciences (NCATS), 2018).
Hit rate of the full screen: of about 410,000 compounds, about 18,000 (4.4%) were called active. Inconclusive means that the source gave no clear call. Such entries were picked first, then a sample of the others. Rule as the data show it: active = activity change below about -60%; inconclusive = no clear call, values can overlap the other calls; inactive = above about -39%.
% is scaled to controls: 0 for no effect and ±100 for the full control effect.

Assay: qHTS Assay for inhibitors of the human cytomegalovirus (HCMV)
Conditions: HFF cells, HCMV-luciferase reporter, 72 h; at 57.5 µM; hits give low values
How it was run: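 Human foreskin fibroblasts infected with luciferase-reporter HCMV at MOI 1 PFU/cell, compounds at two doses. Luciferase measured 72 h post infection; normalized to buffer-only basal and Salinomycin (10uM) controls.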
For `COc1ccc(CN=C(N)N=C(N)N)cc1Cl`, the activity change, negative = inhibition was inconclusive: -53.9%. With `CCN(Cc1ccccc1)c1nc2c(S(=O)(=O)c3ccccc3)nnn2c2ccc(Cl)cc12` the activity change, negative = inhibition was inconclusive: -48.7%. For `Cc1ccccc1Cn1c(CN2CCc3ccccc3C2)nc2c1c(=O)n(C)c(=O)n2C`, the activity change, negative = inhibition was inactive: 0.298%. With `Cc1nn(C(C)C(=O)NCCc2ccccc2)c(=O)c2c1sc1ccccc12` (configuration not stated) the activity change, negative = inhibition was inactive: -39.3%. For `COC(=O)C1=C(C)N(CCc2ccc(OC)c(OC)c2)C(=O)/C1=C\c1ccc(O)cc1`, the activity change, negative = inhibition was inconclusive: -45.2%. For `O=C(c1ccccc1)c1ccc2nc(N3CCCCC3)c3nncn3c2c1`, the activity change, negative = inhibition was inconclusive: -43.7%. In the case of `NC(=O)c1c(NC(=O)Cc2ccccc2)sc2c1CCN(Cc1ccccc1)C2`, the activity change, negative = inhibition is reported as inactive: -32.2%. With `COc1ccc(Br)c(/C=N/NC(=O)COc2ccc(-c3ccccc3)cc2)c1` the activity change, negative = inhibition was inactive: 16.1%. In the case of `OC(c1ccc(Cl)c(F)c1)c1ncc(-c2cccc3ccccc23)[nH]1` (configuration not stated), the activity change, negative = inhibition is reported as inconclusive: -41.7%. For `CNC(=O)COc1ccccc1C(=O)Nc1ccc2c(c1)oc1ccccc12`, the activity change, negative = inhibition was active: -68.8%. For `C=C1C(=O)O[C@@H]2C[C@@H](C)[C@@H]3C=CC(=O)[C@@]3(C)[C@@H](OC(C)=O)[C@H]12`, the activity change, negative = inhibition was active: -99.2%. For `CC1N(C)c2cc(NC(=O)c3ccco3)c(P(=O)(Nc3ccc([N+](=O)[O-])cc3)N3CCOCC3)cc2C1(C)C` (configuration not stated), the activity change, negative = inhibition was inconclusive: -50.4%. For `Cc1cc2oc(C(=O)Nc3ccc(S(=O)(=O)Nc4nccs4)cc3)cc(=O)c2cc1Cl`, the activity change, negative = inhibition was active: -78.9%. In the case of `COc1ccc(-c2cn3c(C)c(C(=O)NCc4ccc5c(c4)OCO5)sc3n2)cc1`, the activity change, negative = inhibition is reported as inconclusive: -47.8%. With `COc1ccc(CC(=O)OCc2cc(=O)n3cc(Br)ccc3n2)cc1OC` the activity change, negative = inhibition was inconclusive: -41.5%. In the case of `CCN(CC)CCNC(=O)c1ccc(NC(=O)c2ccc(Cl)c(S(=O)(=O)N3CCCCCC3)c2)cc1`, the activity change, negative = inhibition is reported as active: -60.4%. For `CCC1=NN2C(=N)/C(=C\c3cccn3-c3cccc(Cl)c3)C(=O)N=C2S1`, the activity change, negative = inhibition was inconclusive: -42.8%. In the case of `COc1ccccc1CNc1nc(NCc2cccs2)nc2ccsc12`, the activity change, negative = inhibition is reported as inconclusive: -50.7%. For `CCC(C)NC(=O)C1CCN(S(=O)(=O)c2ccc3c(c2)CC(C)N3C(C)=O)CC1` (configuration not stated), the activity change, negative = inhibition was inconclusive: -57.9%. With `Cc1cccc(NC(=O)/C(C#N)=C/c2ccccc2Cl)n1` the activity change, negative = inhibition was inconclusive: -45.5%. With `CN1c2ccccc2SC2C(c3ccccc3)=NOC21` (configuration not stated) the activity change, negative = inhibition was inactive: -33.9%. With `Cc1cccn2c(=O)nc(SCC(=O)N3N=C(c4cccs4)CC3c3ccc(F)cc3)nc12` (configuration not stated) the activity change, negative = inhibition was inactive: -23.1%. With `Cc1ccc(C2CC(=O)N(Cc3ccc(F)cc3)c3c2c(C)nn3-c2nc(C)cc(C)n2)cc1` (configuration not stated) the activity change, negative = inhibition was inconclusive: -41.1%. For `CCOC(=O)Cn1c(CN(C)Cc2ccccc2)nc2c1c(=O)n(C)c(=O)n2C`, the activity change, negative = inhibition was inactive: -8.18%. With `Cc1snc(SCc2ccc(Cl)cc2)c1C#N` the activity change, negative = inhibition was active: -99.9%. With `CCN(CC)S(=O)(=O)c1ccc(-c2nnc(SCc3nnc(-c4ccc(C)cc4)o3)n2CC)cc1` the activity change, negative = inhibition was inconclusive: -40.6%. With `Cc1cnc(NC(=O)Nc2ccc(Cl)cc2)s1` the activity change, negative = inhibition was active: -104%. In the case of `Cc1ccc(C(=O)OCC(=O)NCCc2ccccc2)cc1C`, the activity change, negative = inhibition is reported as inconclusive: -51.9%. With `C=CCn1c(SCC(=O)N2CCOCC2)nc2ccccc2c1=O` the activity change, negative = inhibition was inconclusive: -40.4%. With `Cc1ccc(-n2c(C)nc3c(cnn3-c3ccc(F)cc3)c2=O)cc1` the activity change, negative = inhibition was active: -83.4%. In the case of `CN(C)c1ccc(CNC(=O)C2CCN(c3nnc(-n4cccc4)s3)CC2)cc1`, the activity change, negative = inhibition is reported as inconclusive: -58.7%. With `Cc1nn(CCC(=O)Nc2ccc(Cl)cc2)c(C)c1S(=O)(=O)N1CCCCC1` the activity change, negative = inhibition was inconclusive: -43%. For `COC(=O)C1(C(F)(F)F)N=C(C(F)(F)F)Nc2ccc(Cl)cc21` (configuration not stated), the activity change, negative = inhibition was active: -102%. In the case of `OCC(CCc1c[nH]c2ccccc12)c1c[nH]c2ccccc12` (configuration not stated), the activity change, negative = inhibition is reported as inconclusive: -44.2%. With `COc1ccc(Cc2nc3ccc(C(=O)N(C)Cc4cc(C)[nH]n4)cc3o2)cc1OC` the activity change, negative = inhibition was inconclusive: -44%. In the case of `COc1cc(/C=N/NC(=O)CSc2nc3ccccc3n2C)cc(OC)c1OC`, the activity change, negative = inhibition is reported as inconclusive: -53.6%. In the case of `CCc1ccccc1N1C(=O)/C(=C/c2ccc(N3CCN(C)CC3)o2)C(=O)NC1=S`, the activity change, negative = inhibition is reported as inconclusive: -50.7%. For `O=[N+]([O-])c1ccc2cn(-c3ccccc3)nc2c1`, the activity change, negative = inhibition was active: -68.1%. In the case of `Cc1ccc(Cn2c(CO)cnc2SCc2ccc(F)cc2)cc1`, the activity change, negative = inhibition is reported as inconclusive: -53.1%. In the case of `O=C(Nc1ccc(Cl)cc1Cl)c1cc(S(=O)(=O)NCc2ccc3c(c2)OCO3)ccc1F`, the activity change, negative = inhibition is reported as inconclusive: -40.4%. With `CC(CCc1ccccc1)NC(=O)C(Cc1ccccc1)NS(=O)(=O)c1cccs1` (configuration not stated) the activity change, negative = inhibition was inconclusive: -57.9%. In the case of `Cc1ccc(CNC(=O)C2CC(=O)N(C3CCCCCCC3)C2)cc1` (configuration not stated), the activity change, negative = inhibition is reported as inconclusive: -49.7%.
